# Results deposited as PubChem BioAssay AID1224830 (NIAID, 2016).
# Purpose: 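Genes whose knock-down alters the TNF-alpha reporter response to LPS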 (primary screen)
# System: human THP-1 monocytic leukaemia cells, TNF dual-luciferase reporter clone, PMA-differentiated to macrophage-like cells
# Knock-down reagent: siRNA pool against human genes, 50 nM
# Time to read-out: LPS for 4 h, given about 3 days after siRNA transfection
# Treatment: bacterial LPS (TLR4 ligand), 10 ng/ml
# Measurement: 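Ratio of firefly to renilla light, scaled to the plate median and expressed as a robust z-score per replicate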
# Scale: TNF reporter robust z-score: higher = stronger TNF reporter response to LPS
# Call rule: 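a well is active when its z-score exceeds 2.8 or falls below -1.5; control wells carry no call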
# This is one part, drawn at random, of about 18,000 reagents tested. Over the whole deposit, about 2,900 (16%) got an active call. 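Calls are made per well; low scores hint the gene aids the LPS response, high scores that it dampens it.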 Repeated entries: four replicate wells of each siRNA pool.
gene symbol,TNF reporter robust z-score,activity call
PRDM13,-1.4,inactive
PRDM13,-1.26,inactive
PRDM13,-0.89,inactive
PRDM13,-0.54,inactive
BRWD3,-0.42,inactive
BRWD3,0.33,inactive
BRWD3,0.51,inactive
BRWD3,0.7,inactive
CACFD1,1.42,inactive
CACFD1,0.47,inactive
CACFD1,0,inactive
CACFD1,1.28,inactive
NPVF,1.36,inactive
NPVF,0.91,inactive
NPVF,0.48,inactive
NPVF,1.99,inactive
CGB1,0.54,inactive
CGB1,0.17,inactive
CGB1,0,inactive
CGB1,0.12,inactive
PTEN,0.01,inactive
PTEN,-0.82,inactive
PTEN,-0.47,inactive
PTEN,-1.59,active
PRAMEF1,-0.86,inactive
PRAMEF1,-0.44,inactive
PRAMEF1,-1.14,inactive
PRAMEF1,0.29,inactive
TRMT112,0.73,inactive
TRMT112,1.27,inactive
TRMT112,1.29,inactive
TRMT112,0.97,inactive
ACSL5,-1.26,inactive
ACSL5,-0.92,inactive
ACSL5,-1.18,inactive
ACSL5,-0.37,inactive
GATM,0.02,inactive
GATM,0.25,inactive
GATM,0.11,inactive
GATM,0.32,inactive
LINC01600,0.53,inactive
LINC01600,0.27,inactive
LINC01600,-0.12,inactive
LINC01600,-0.02,inactive
RBM7,-0.64,inactive
RBM7,-0.13,inactive
RBM7,-0.62,inactive
RBM7,-0.5,inactive
RBPMS,-1.29,inactive
RBPMS,-1.17,inactive
RBPMS,-0.96,inactive
RBPMS,-1.18,inactive

15 of these entries, reformatted:
{"gene symbol": "PRDM13", "TNF reporter robust z-score": -0.54, "activity call": "inactive"}
{"gene symbol": "BRWD3", "TNF reporter robust z-score": -0.42, "activity call": "inactive"}
{"gene symbol": "BRWD3", "TNF reporter robust z-score": 0.33, "activity call": "inactive"}
{"gene symbol": "BRWD3", "TNF reporter robust z-score": 0.51, "activity call": "inactive"}
{"gene symbol": "BRWD3", "TNF reporter robust z-score": 0.7, "activity call": "inactive"}
{"gene symbol": "CACFD1", "TNF reporter robust z-score": 1.42, "activity call": "inactive"}
{"gene symbol": "CACFD1", "TNF reporter robust z-score": 0.47, "activity call": "inactive"}
{"gene symbol": "CACFD1", "TNF reporter robust z-score": 0, "activity call": "inactive"}
{"gene symbol": "CACFD1", "TNF reporter robust z-score": 1.28, "activity call": "inactive"}
{"gene symbol": "NPVF", "TNF reporter robust z-score": 1.36, "activity call": "inactive"}
{"gene symbol": "NPVF", "TNF reporter robust z-score": 0.91, "activity call": "inactive"}
{"gene symbol": "NPVF", "TNF reporter robust z-score": 0.48, "activity call": "inactive"}
{"gene symbol": "NPVF", "TNF reporter robust z-score": 1.99, "activity call": "inactive"}
{"gene symbol": "CGB1", "TNF reporter robust z-score": 0.54, "activity call": "inactive"}
{"gene symbol": "CGB1", "TNF reporter robust z-score": 0.17, "activity call": "inactive"}

The list goes on.
gene symbol,TNF reporter robust z-score,activity call
STAT5A,1.31,inactive
STAT5A,0.3,inactive
STAT5A,-0.02,inactive
STAT5A,0.86,inactive
ARHGEF18,0.34,inactive
ARHGEF18,0.71,inactive
ARHGEF18,0.19,inactive
ARHGEF18,-0.3,inactive
PDIA2,-0.23,inactive
PDIA2,0.68,inactive
PDIA2,0.28,inactive
PDIA2,0.06,inactive
RNPS1,-1,inactive
RNPS1,-0.67,inactive
RNPS1,-0.54,inactive
RNPS1,-0.04,inactive
LGALS3BP,-1.21,inactive
LGALS3BP,-0.92,inactive
LGALS3BP,-1.25,inactive
LGALS3BP,-0.27,inactive
HAGH,1.16,inactive
HAGH,4.19,active
HAGH,3.57,active
HAGH,2.65,inactive
ZNF503,-1.81,active
ZNF503,-0.28,inactive
ZNF503,-0.03,inactive
ZNF503,-0.4,inactive
C22orf31,-1.3,inactive
C22orf31,-0.62,inactive
C22orf31,-0.52,inactive
C22orf31,-1.31,inactive
MED12L,1.03,inactive
MED12L,0.33,inactive
MED12L,0.8,inactive
MED12L,1.86,inactive
EEF1A1,-0.62,inactive
EEF1A1,0.55,inactive
EEF1A1,-0.41,inactive
EEF1A1,0.31,inactive
ARHGAP12,0.45,inactive
ARHGAP12,-0.62,inactive
ARHGAP12,0.11,inactive
PDCD1LG2,-0.12,inactive
PDCD1LG2,1.5,inactive
PDCD1LG2,0.74,inactive
PDCD1LG2,1.44,inactive
ARL1,-0.21,inactive
ARL1,0.92,inactive
ARL1,1.29,inactive
ARL1,1.1,inactive
SLC61A1,-0.35,inactive
SLC61A1,-1.06,inactive
SLC61A1,-1.12,inactive
SLC61A1,-0.27,inactive
RHOV,-0.39,inactive
RHOV,-0.9,inactive
RHOV,-1.3,inactive
RHOV,0,inactive
